# According to the supplement of paper PMC12873370:
# Values joined by “and” are separate entries in the source; they are usually repeats but may differ in a detail not shown here. Equal entries are not always repeated. Some of the results follow. Repeats are few or missing, and single values can be far off.
# Columns and labels:
# [1] = tested on: MEPP (mouse ovarian epithelium Trp53/Pten KO); assay: cell viability relative to untreated (fraction); higher = less growth inhibition; conditions: 5 µM; 3 days
# [2] = tested on: PREPP (mouse prostate epithelium Trp53/Pten KO); assay: as above; conditions: 5 µM; 3 days
compound,measurement,setting,value
O=C(O)/C=C(\CC(=O)O)C(=O)O,cell viability,[1],1.02
same,cell viability,[2],0.992
COc1cc(C(=O)O)cc(OC)c1O,cell viability,[1],0.904
same,cell viability,[2],0.938
CN(C(=O)c1c(O)c2ccccc2n(C)c1=O)c1ccccc1,cell viability,[1],0.735
same,cell viability,[2],0.87
COc1cc2c(cc1OC)-c1cc3ccc4c(c3c[n+]1CC2)OCO4,cell viability,[1],0.997
same,cell viability,[2],1.12
O=C1NCC2(CCN(CCc3ccccc3)CC2)O1,cell viability,[1],1.4
same,cell viability,[2],0.95
O=C(O)c1cc(O)c2c(c1)C(=O)c1cccc(O)c1C2=O,cell viability,[1],0.938
same,cell viability,[2],0.923
O=C(O)[C@H]1CCCN1,cell viability,[1],0.967
same,cell viability,[2],1.03
CN[C@@H]1[C@@H](O)[C@@H](O[C@@H]2[C@@H](O)[C@H](O[C@H]3O[C@H](CN)[C@@H](O)[C@H](O)[C@H]3O)[C@@H](N)C[C@H]2NC(=O)[C@@H](O)CN)OC[C@]1(C)O,cell viability,[1],1.01
same,cell viability,[2],1.16
N=C(N)NCCCC[C@@H]1NC(=O)CCSSC[C@@H](C(N)=O)NC(=O)[C@@H]2CCCN2C(=O)[C@H](Cc2c[nH]c3ccccc23)NC(=O)[C@H](CC(=O)O)NC(=O)CNC1=O,cell viability,[1],0.741
same,cell viability,[2],0.868
O=C(O)c1cc(O)c2c(c1)[C@@H]([C@H]1c3cc(C(=O)O)cc(O)c3C(=O)c3c(O[C@@H]4O[C@H](CO)[C@@H](O)[C@H](O)[C@H]4O)cccc31)c1cccc(O[C@@H]3O[C@H](CO)[C@@H](O)[C@H](O)[C@H]3O)c1C2=O,cell viability,[1],1.09
same,cell viability,[2],1.04
Cn1cnc(N)c2ncnc1-2,cell viability,[1],1.06
same,cell viability,[2],0.909
CCc1ccc(O)cc1,cell viability,[1],1.17
same,cell viability,[2],0.858
C[C@H](CCC(=O)O)[C@H]1CC[C@H]2[C@@H]3[C@H](O)C[C@@H]4C[C@H](O)CC[C@]4(C)[C@H]3C[C@H](O)[C@]12C,cell viability,[1],1.05 and 1.15
same,cell viability,[2],0.945 and 0.993
Cn1cnc2c(ncn2[C@@H]2O[C@H](CO)[C@@H](O)[C@H]2O)c1=N,cell viability,[1],1.03
same,cell viability,[2],1.03
CC(=O)OCC(=O)[C@@]1(O)CC[C@H]2[C@@H]3CCC4=CC(=O)CC[C@]4(C)[C@H]3C(=O)C[C@@]21C,cell viability,[1],0.994
same,cell viability,[2],0.909
CC(=O)O[C@@H]1C[C@H](O)[C@@]23CO[C@@H](O)[C@]1(C)[C@@H]2C[C@@H](O)[C@]1(C)[C@@H]3C(=O)[C@H](OC(C)=O)[C@@]2(C)[C@H](c3ccoc3)C[C@H]3O[C@]321,cell viability,[1],0.507
same,cell viability,[2],0.928
COc1cc(C[C@H]2C(=O)OC[C@@H]2Cc2ccc(OC)c(OC)c2)ccc1O,cell viability,[1],0.871
same,cell viability,[2],0.853
COC(=O)c1ccco1,cell viability,[1],0.952
same,cell viability,[2],0.997
CS(=O)(=O)c1ccc([C@@H](O)[C@@H](CF)NC(=O)C(Cl)Cl)cc1,cell viability,[1],1.31
same,cell viability,[2],1.22
N[C@@H](CO)C(=O)O,cell viability,[1],0.962
same,cell viability,[2],0.83
C[C@]12CCC(=O)C=C1CC[C@@H]1[C@@H]2[C@@H](O)C[C@@]2(C)[C@H]1CC[C@]2(O)C(=O)CO,cell viability,[1],0.863
same,cell viability,[2],0.805
NC(=O)NCCCC[C@H](N)C(=O)O,cell viability,[1],1.01
same,cell viability,[2],0.992
CCCCCCCC(=O)c1c(O)cc(O)cc1CC(=O)OCC,cell viability,[1],1.04
same,cell viability,[2],0.974
O=C(O)CCCCCCCCC(=O)O,cell viability,[1],1.2
same,cell viability,[2],0.882
O=C(O)CCc1ccccc1,cell viability,[1],1.69
same,cell viability,[2],1
OC[C@@H](O)[C@@H](O)[C@H](O)[C@H](O)CO,cell viability,[1],0.906
same,cell viability,[2],0.89
C=C1CC[C@H]2C(=C)CC[C@H]3C(=C)C(=O)O[C@@H]3[C@@H]12,cell viability,[1],1.14
same,cell viability,[2],0.913
C[C@@H]1[C@H]2[C@H](O[C@@H]3O[C@H](CO)[C@@H](O)[C@H](O)[C@H]3O)OC=C(C(=O)O)[C@H]2C[C@@H]1O,cell viability,[1],1.2
same,cell viability,[2],0.883
O=C(O)CCc1ccc(O)cc1,cell viability,[1],1.52
same,cell viability,[2],0.977
CC(=O)Oc1c(C)c(C)c2c(c1C)CCC(C)(CCC[C@H](C)CCC[C@H](C)CCCC(C)C)O2 (stereo not given in full),cell viability,[1],0.961
same,cell viability,[2],0.998
COC1=C(OC)C(=O)C(C/C=C(\C)CC/C=C(\C)CC/C=C(\C)CC/C=C(\C)CC/C=C(\C)CC/C=C(\C)CC/C=C(\C)CC/C=C(\C)CC/C=C(\C)CCC=C(C)C)=C(C)C1=O,cell viability,[1],0.763
same,cell viability,[2],1.13
Cn1nnc(-c2ccc(-c3ccc(N4C[C@H](CO)OC4=O)cc3F)cn2)n1,cell viability,[1],0.815 and 1.03
same,cell viability,[2],1.06 and 0.972
C/C1=C/CC[C@H](C)C(=O)C[C@@H](C(C)C)C(=O)C1,cell viability,[1],1.33
same,cell viability,[2],1.13
O=C(O)c1cc(O)c(O)c(O)c1,cell viability,[1],1.04
same,cell viability,[2],1.08
O=C(O)c1ccc[nH]1,cell viability,[1],1.01
same,cell viability,[2],1.01
COc1ccc2c(C)cc(=O)oc2c1,cell viability,[1],0.874
same,cell viability,[2],1.04
O=C(O)[C@H]1O[C@@H](O)[C@H](O)[C@@H](O)[C@@H]1O,cell viability,[1],1.07
same,cell viability,[2],1.03
O[C@H]1[C@H](O)[C@@H](O)[C@H](O)[C@@H](O)[C@@H]1O,cell viability,[1],0.968
same,cell viability,[2],0.92
NC(=O)NC(CC(=O)O)C(=O)O (stereo not given),cell viability,[1],0.876
same,cell viability,[2],1.05
O=C1Nc2ccccc2C1=O,cell viability,[1],0.752
same,cell viability,[2],1.12

# In another format: results already given
compound	measurement	setting	value
N[C@@H](CO)C(=O)O	cell viability	[1]	0.962
same	cell viability	[2]	0.83
C[C@]12CCC(=O)C=C1CC[C@@H]1[C@@H]2[C@@H](O)C[C@@]2(C)[C@H]1CC[C@]2(O)C(=O)CO	cell viability	[1]	0.863

# Reprinted from above for reference:
compound,measurement,setting,value
Cn1cnc(N)c2ncnc1-2,cell viability,[2],0.909
CCc1ccc(O)cc1,cell viability,[1],1.17
